Laboratory results: patent US5932425A, “Compositions and methods for modulating cellular NF-κB activation” (Signal Pharmaceuticals, Inc., priority 1997, dated 1999)
Part of at least one peptide drawing is inferred or uncertain, most often the ends. No end group written: not given here.

Assays:
[1] = test system: pIκBα ubiquitination (E3 ubiquitin ligase); assay: In vitro ubiquitination assay of phosphorylated, NF-κB complex-associated IκBα; assay type: biochemical, human; conditions: peptide at 400 μM
Experimental: Following incubation, 1 μl of anti-p65 serum was added, and the NF-κB immune complex was immobilized to Protein A-Sepharose® and subjected to in vitro ubiquitination in HeLa cell extract as described by Alkalay et al. Ubiquitinated proteins were separated by SDS-PAGE and visualized by autoradiography.
To identify the IκBα-ubiquitin ligase recognition motif, various peptides were added at varying concentrations to the reaction mixtures in the presence of the peptidase inhibitor Bestatin (40 μg/ml). The peptides spanned the N-terminal signaling domain of the protein, and were phosphorylated at one or both serine residues (32 and 36), or were unmodified or serine-substituted. These peptides were included in the ubiquitination reaction at different concentrations and tested for inhibition of pIκBα specific ubiquitination. When conjugation of free IκBα was monitored, the translated protein was added directly to the conjugation reaction mixture.

[2] = test system: E-selectin expression in HUVEC; assay: Microinjection into HUVEC, TNFα activation, E-selectin staining; assay type: cell-based, human; conditions: microinjected, compared to non-microinjected cells
Text: Primary human vascular endothelial cells (HUVEC) respond to TNFα stimulation by surface expression of NF-κB regulated adhesion proteins such as ICAM-1, V-CAM-1 and E-selectin (Read et al., Immunity 2:493,1995; Chen et al., J. Immunol 155:3538, 1995). E-selectin expression is particularly NF-κB dependent and is the major inducible endothelial adhesion molecule for initial neutrophil attachment and rolling on activated endothelium. Stimulated cells may be fixed and stained to detect expression of one or more NF-κB regulated adhesion proteins.
HeLa cells were plated on a grid coverslips (Cellocate, Eppendorf) 18 hours before microinjection. Microinjection was performed with a 22 amino acid pIκBα peptide (pp21; Table I and SEQ ID NO:9) or a control phospho-Fos peptide (SEQ ID NO:10) using a semi-automated apparatus (Eppendorf). Peptides were injected into the cell cytoplasm at a concentration of 5 mg/ml in 100 mM KCl, 5 mM Na2 HPO4 (pH 7.2), and immediately activated with TNFα (200 units/mL) for either 20 minutes (for NF-κB translocation) or 3 hours (for E-selectin expression). Following activation, the cells were fixed and stained with p65 specific antibodies (Mercurio et al., Genes & Dev. 7:705, 1993; Santa Cruz) or monoclonal anti-E-selectin antibodies (R&D Systems). […]

[3] = test system: pIκBα degradation; assay: Ubiquitin-dependent in vitro degradation assay, extracts from stimulated HeLa cells; assay type: biochemical, human; conditions: 40 μM peptide, FIG. 2

| Sequence | effect on the ubiquitination of pIκB [1] | effect on E-selectin expression [2] | effect on specific pIκBα degradation [3] |
| --- | --- | --- | --- |
| CKKERLLDDRHDAGLDAMKDEE [p21 S/A] | no detectable effect | no effect |  |
| CKKERLLDDRHDSGLDSMKDEE [p21] | no detectable effect |  | no effect |
